Results taken from article PMC7160150, “Transcriptional repression of GIF1 by the KIX-PPD-MYC repressor complex controls seed size in Arabidopsis”.
No constants are given. Whether binding was seen depends on the method and setting. Binding seen in cells or lysates may run through a third protein. Binding calls can cover weak binding; strength is not graded here.

The chains behind the UniProt entries cited, without tags or fusion partners.
UniProt Q7XA73: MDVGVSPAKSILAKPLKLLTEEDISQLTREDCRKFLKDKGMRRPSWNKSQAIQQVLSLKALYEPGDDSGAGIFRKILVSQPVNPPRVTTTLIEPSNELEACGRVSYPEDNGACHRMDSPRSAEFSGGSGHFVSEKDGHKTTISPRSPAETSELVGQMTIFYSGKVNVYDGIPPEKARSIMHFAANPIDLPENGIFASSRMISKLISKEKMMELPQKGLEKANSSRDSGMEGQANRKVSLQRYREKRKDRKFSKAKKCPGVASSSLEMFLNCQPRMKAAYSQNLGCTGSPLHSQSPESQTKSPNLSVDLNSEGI
UniProt Q8GY55: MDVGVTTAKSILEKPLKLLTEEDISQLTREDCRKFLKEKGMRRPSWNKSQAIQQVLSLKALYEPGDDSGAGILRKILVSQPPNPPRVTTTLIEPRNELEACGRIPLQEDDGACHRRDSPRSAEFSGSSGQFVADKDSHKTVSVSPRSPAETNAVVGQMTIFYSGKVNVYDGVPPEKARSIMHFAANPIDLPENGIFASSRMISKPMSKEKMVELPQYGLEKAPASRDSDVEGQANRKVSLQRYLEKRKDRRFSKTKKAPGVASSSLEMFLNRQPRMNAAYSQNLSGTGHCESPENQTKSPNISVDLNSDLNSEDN

Target: His-KIX8 (Arabidopsis thaliana (Col-0))
Assay: pull-down; His-KIX8 incubated with GST-MYC3 or GST-MYC4 and MBP-PPD1 or MBP-PPD2 (E. coli proteins obtained by sonication), 4 °C 1 h; pulled down with Ni-NTA agarose; blot with anti-GST, anti-MBP and anti-His

| binding | Substance |
| --- | --- |
| binds | MBP-PPD1 (from UniProt Q7XA73 1-313) |
| binds | MBP-PPD2 (from UniProt Q8GY55 1-315) |
